Laboratory results as given in publication PMC9134706.
These are yes or no findings as the source states them, for the method shown. Binding seen in cells or lysates may run through a third protein. Some entries that bind do so weakly or less than the wild type.

Amino acid sequences for entries named in this document (tags omitted).
UniProt Q9Y508: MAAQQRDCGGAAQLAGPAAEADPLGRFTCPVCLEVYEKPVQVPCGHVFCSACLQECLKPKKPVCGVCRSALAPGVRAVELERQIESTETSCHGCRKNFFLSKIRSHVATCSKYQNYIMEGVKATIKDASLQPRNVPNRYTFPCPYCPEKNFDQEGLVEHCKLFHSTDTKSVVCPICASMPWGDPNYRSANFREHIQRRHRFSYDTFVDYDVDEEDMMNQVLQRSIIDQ
UniProt P63167: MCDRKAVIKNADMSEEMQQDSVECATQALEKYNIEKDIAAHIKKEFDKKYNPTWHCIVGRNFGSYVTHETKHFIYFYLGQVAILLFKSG

Experiments:
Myc-RNF114 = Myc-RNF114 (UniProt Q9Y508); test: co-IP; KYSE-150-DLEU1 cells co-transfected with the Flag-tagged and Myc-tagged constructs, treated with MG132; immunoprecipitation with anti-Flag (A) or anti-Myc (B) antibody, immunoblotting with anti-Myc or anti-Flag antibody; the text calls it 'pull-down assays'
[1] = molecular target: Flag-tagged DYNLL1 (Dynein light chain LC8-type 1) (UniProt P63167); test: as above

| Substance | binding (Myc-RNF114) | binding [1] |
| --- | --- | --- |
| Flag-tagged DYNLL1 (Dynein light chain LC8-type 1) (from UniProt P63167 1-89) | binds |  |
| Myc-RNF114 (from UniProt Q9Y508 1-228) (enzyme) |  | binds |
